These are yes or no findings as the source states them, for the method shown. Some entries that bind do so weakly or less than the wild type.
What was measured:
[1] = biological target: human P-glycoprotein (Pgp), 170 kDa, encoded by the mdr1 gene, on the surface of MDR human carcinoma cells (2780^ADR, KBV-1) (human) (UniProt P08183); assay: immunohistochemistry on fixed cells, A2 scFv 0.2 mg/ml, anti-Myc-HRP
[2] = biological target: biotinylated target Pgp-derived peptide having the amino acid sequence of SEQ ID NO:1 (…) (human); assay: saturation ELISA
[3] = biological target: human P-glycoprotein (Pgp), 170 kDa, encoded by the mdr1 gene, on the surface of MDR human carcinoma cells (2780^ADR, KBV-1) (human) (UniProt P08183); assay: flow cytometry on MDR, Pgp-overexpressing KBV-1 cells (FIG. 2d legend)
[4] = biological target: biotinylated target Pgp-derived peptide having the amino acid sequence of SEQ ID NO:1 (…) (human); assay: ELISA, anti-Myc-HRP detection
[5] = biological target: biotinylated target Pgp-derived peptide having the amino acid sequence of SEQ ID NO:1 (…) (human); assay: ELISA, FIG. 1b legend
[6] = biological target: biotinylated target Pgp-derived peptide having the amino acid sequence of SEQ ID NO:1 (…) (human); assay: competition radioimmunoassay
[7] = biological target: human P-glycoprotein (Pgp), 170 kDa, encoded by the mdr1 gene, on the surface of MDR human carcinoma cells (2780^ADR, KBV-1) (human) (UniProt P08183); assay: flow cytometry on MDR cells
[8] = biological target: human P-glycoprotein (Pgp), 170 kDa, encoded by the mdr1 gene, on the surface of MDR human carcinoma cells (2780^ADR, KBV-1) (human) (UniProt P08183); assay: summary of flow cytometry and immunohistochemistry

Chains of the proteins cited; added tags and fusions are not shown.
UniProt P08183: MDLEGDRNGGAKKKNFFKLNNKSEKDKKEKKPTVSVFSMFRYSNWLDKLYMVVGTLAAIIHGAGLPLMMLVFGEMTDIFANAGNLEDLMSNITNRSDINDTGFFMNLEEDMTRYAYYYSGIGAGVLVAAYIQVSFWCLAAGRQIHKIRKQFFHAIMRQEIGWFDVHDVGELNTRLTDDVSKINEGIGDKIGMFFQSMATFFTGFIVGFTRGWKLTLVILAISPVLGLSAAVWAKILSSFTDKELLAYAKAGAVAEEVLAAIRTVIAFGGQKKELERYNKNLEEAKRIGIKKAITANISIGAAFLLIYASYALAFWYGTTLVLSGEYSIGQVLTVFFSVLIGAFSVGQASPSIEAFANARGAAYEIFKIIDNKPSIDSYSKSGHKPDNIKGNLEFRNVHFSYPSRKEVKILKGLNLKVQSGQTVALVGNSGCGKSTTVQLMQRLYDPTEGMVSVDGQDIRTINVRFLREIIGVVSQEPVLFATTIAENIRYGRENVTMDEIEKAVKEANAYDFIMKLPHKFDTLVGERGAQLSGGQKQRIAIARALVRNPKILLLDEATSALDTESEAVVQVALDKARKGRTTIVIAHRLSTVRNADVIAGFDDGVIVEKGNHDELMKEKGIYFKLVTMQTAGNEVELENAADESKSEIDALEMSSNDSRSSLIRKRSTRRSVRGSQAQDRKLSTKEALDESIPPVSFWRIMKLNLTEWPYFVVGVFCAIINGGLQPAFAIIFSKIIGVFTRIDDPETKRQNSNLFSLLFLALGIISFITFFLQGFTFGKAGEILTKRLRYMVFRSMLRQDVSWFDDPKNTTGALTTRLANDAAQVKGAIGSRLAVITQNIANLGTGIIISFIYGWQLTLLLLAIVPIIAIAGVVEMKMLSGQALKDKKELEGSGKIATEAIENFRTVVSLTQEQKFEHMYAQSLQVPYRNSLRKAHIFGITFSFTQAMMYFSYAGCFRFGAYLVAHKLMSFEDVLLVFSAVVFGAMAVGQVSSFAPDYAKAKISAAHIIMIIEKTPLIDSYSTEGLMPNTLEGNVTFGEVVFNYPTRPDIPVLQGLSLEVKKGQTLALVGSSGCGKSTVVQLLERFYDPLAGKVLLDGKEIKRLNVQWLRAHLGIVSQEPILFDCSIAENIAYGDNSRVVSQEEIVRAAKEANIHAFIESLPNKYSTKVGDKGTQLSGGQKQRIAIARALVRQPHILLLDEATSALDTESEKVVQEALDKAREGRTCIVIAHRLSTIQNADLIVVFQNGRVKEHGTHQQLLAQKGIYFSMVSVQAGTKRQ

Measured: binding

B1: A2 single-chain Fv (scFv) (scFv)
scFv: QVQLQQSGPDLVKPGASVKISCKASGYSFTGYYMHWVKQSHGKSLEWIGRANPNNGGTSYNQKFKGKAILTVDKSSSTAYMELRSLTSEDSAVYYCARWDGAYWGQGTLVTVSSGGGGSGGGGSGGGGSDVVMTQTPLSLPVSLGDQASISCRSSQSIVHSNGNTYLEWYLQKPGQSPKLLIYKVSNRFSGVPDRFSGSGSGTDFTLKISRVEAEDLGVYYCFQGSHVPFTFGSGTKLELKEQKLISEEDLNHHHHHH
binds: [1] | [2] | [3] | [4] | [5] | [6] | [7] | [8]

From patent US20040197334A1
